Measurements: article PMC10289811
These are yes or no findings as the source states them, for the method shown. In cells and extracts the contact can be indirect. Here binding means that the protein was enriched with, or labelled near, the bait; the list need not be complete.

Protein sequences, listed by entry. Tags and fused reporters are not part of them. Residues count along the entry.
UniProt Q04164, residues 42-1693: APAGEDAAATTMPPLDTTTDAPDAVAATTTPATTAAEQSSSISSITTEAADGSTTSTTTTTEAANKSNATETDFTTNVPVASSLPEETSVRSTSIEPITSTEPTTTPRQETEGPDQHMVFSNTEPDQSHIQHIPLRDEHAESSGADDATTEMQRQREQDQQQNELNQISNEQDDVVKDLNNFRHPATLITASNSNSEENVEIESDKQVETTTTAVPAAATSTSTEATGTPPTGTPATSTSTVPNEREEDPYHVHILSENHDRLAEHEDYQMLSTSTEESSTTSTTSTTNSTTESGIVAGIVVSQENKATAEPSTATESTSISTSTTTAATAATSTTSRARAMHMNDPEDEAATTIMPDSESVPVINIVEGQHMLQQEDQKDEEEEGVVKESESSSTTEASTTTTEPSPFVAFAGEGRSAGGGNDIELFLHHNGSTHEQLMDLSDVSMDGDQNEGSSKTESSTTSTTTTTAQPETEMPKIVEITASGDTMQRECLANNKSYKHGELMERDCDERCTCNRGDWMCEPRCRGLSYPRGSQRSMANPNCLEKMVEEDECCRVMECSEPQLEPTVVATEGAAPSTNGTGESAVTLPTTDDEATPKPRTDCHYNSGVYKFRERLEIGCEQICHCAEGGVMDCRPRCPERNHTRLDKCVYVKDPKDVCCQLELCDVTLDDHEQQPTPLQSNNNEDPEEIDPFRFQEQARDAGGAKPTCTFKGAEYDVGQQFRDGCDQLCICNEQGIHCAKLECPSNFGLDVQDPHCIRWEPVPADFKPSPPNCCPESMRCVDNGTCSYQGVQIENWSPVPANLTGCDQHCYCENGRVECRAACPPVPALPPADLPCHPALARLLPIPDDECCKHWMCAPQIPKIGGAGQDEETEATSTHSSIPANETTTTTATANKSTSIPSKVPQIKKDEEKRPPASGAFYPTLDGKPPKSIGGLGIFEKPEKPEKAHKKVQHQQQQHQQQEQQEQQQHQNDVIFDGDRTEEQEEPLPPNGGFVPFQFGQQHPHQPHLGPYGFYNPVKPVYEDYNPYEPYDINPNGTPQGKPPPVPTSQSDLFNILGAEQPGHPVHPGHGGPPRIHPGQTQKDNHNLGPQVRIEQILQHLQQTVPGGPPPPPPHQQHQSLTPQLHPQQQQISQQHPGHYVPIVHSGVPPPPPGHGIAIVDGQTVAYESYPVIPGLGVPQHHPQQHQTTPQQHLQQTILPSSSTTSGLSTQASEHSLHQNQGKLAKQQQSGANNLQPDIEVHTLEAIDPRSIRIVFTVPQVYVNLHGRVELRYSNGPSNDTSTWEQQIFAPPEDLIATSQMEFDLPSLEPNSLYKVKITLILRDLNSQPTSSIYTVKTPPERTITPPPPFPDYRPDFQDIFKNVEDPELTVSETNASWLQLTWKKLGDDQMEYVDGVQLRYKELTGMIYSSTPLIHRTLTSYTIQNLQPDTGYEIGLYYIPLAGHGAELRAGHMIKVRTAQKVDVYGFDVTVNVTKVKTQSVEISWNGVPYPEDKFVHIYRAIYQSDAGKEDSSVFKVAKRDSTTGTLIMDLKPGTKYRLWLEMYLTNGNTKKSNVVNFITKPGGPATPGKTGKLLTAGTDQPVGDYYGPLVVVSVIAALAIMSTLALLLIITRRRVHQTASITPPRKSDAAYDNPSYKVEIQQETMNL

Target: V5-Sas^FL (full-length Stranded at second with a V5 epitope tag) (Drosophila) (UniProt Q04164)
Test: affinity purification with mass spectrometry; EVs from S2 cells expressing V5-Sas^FL and from untransfected control cells lysed with nonionic detergent; lysate incubated with anti-V5-coupled magnetic beads; bead-bound proteins ranked by enrichment over the control

binding: binds
B1: dArc1 (endogenous, in EVs of S2 cells) (protein, UniProt Q7K1U0 1-254)
chain: MAQLTQMTNEQLRELIEAVRAAAVGAAGSAAAAGGADASRGKGNFSACTHSFGGTRDHDVVEEFIGNIETYKDVEGISDENALKGISLLFYGMASTWWQGVRKEATTWKEAIALIREHFSPTKPAYQIYMEFFQNKQDDHDPIDTFVIQKRALLAQLPSGRHDEETELDLLFGLLNIKYRKHISRHSVHTFKDLLEQGRIIEHNNQEDEEQLATAKNTRGSKRTTRCTYCSFRGHTFDNCRKRQKDRQEEQHEE
